This passage reports binding results from patent publication EP2073012A1, “Method for the isolation and identification of ADP-ribosylated molecules” (Fondazione Telethon, priority 2007, dated 2009).

The chains behind the UniProt entries cited, without tags or fusion partners. Residues count along the entry.
UniProt P62629, residues 2-462: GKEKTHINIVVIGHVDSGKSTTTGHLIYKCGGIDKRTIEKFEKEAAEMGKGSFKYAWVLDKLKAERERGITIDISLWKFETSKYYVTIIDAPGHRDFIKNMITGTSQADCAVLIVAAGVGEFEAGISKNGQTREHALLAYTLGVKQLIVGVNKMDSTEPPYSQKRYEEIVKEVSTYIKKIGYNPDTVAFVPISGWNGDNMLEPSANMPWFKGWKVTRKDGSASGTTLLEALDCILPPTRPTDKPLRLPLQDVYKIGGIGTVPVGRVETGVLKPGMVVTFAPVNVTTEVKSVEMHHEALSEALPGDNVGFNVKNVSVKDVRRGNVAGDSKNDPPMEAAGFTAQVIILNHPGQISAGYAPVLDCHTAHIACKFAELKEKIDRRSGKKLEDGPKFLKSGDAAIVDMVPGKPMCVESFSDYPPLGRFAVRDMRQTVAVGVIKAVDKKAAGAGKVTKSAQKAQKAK
UniProt G3I8R9, residues 19-654: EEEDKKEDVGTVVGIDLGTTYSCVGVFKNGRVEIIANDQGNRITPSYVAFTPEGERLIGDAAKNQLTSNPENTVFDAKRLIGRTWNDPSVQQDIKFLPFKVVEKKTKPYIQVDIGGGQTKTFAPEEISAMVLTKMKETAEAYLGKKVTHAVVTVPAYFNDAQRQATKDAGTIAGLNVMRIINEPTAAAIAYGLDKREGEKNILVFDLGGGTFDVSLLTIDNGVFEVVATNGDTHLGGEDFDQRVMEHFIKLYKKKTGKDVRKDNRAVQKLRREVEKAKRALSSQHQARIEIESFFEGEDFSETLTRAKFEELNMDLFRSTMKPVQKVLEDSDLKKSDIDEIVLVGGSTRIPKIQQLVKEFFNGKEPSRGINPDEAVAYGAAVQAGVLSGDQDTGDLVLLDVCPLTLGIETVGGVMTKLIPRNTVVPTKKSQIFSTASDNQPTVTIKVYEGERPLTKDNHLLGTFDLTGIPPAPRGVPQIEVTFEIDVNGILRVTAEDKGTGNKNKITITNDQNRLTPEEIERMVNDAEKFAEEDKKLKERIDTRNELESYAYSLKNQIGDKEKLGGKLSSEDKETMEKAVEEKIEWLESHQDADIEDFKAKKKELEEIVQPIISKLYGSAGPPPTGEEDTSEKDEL

These are yes or no findings as the source states them, for the method shown. Binding seen in cells or lysates may run through a third protein. Some binding calls cover weakened binding; strength is not graded here. Tags and fused reporters may be left off the sequences shown.

Assay [1] has as its target elongation factor α1/2, endogenously ADP-ribosylated, from CHO cells (Chinese hamster) (UniProt P62629). As to the kind of experiment: two-step pull-down (G42E mutant, then wild-type His6-mAf1521) from CHO post-nuclear fraction, silver staining, MALDI-TOF-MS.
Assay [2] deals with GRP78/BiP, endogenously ADP-ribosylated, from CHO cells (Chinese hamster) (UniProt G3I8R9). Described as above.
For assay [3] the target is unchanged. As to the kind of experiment: pull-down, MALDI-TOF-MS.
For assay [4], the target named is T1, SLC25A5, PT-ADP-ribosylated, from HL60 cell membranes (UniProt P05141).
T1 sequence (chain, ADP-ribosylated by pertussis toxin; position not printed): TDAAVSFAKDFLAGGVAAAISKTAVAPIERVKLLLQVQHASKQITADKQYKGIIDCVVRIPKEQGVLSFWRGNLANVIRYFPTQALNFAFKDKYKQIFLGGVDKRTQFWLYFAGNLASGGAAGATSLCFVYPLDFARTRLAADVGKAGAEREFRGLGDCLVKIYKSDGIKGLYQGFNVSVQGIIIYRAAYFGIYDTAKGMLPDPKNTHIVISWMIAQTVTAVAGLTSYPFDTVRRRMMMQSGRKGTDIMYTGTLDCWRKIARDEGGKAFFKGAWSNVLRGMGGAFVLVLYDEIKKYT
As to the kind of experiment: macro-domain pull-down from HL60 cell membranes, procedure parallel to CHO (data not shown).

B1: recombinant, N-terminus, His-tagged, full-length Af1521 wild-type (protein, not shown: small tags and cut ends)
chain: MEVLFEAKVGDITLKLAQGDITQYPAKAIVNAANKRLEHGGGVAYAIAKACAGDAGLYTEISKKAMREQFGRDYIDHGEVVVTPAMNLEERGIKYVFHTVGPICSGMWSEELKEKLYKAFLGPLEKAEEMGVESIAFPAVSAGIYGCDLEKVVETFLEAVKNFKGSAVKEVALVIYDRKSAEVALKVFERSL
On to B1, for which the binding result in assay [1], in assay [2] and in assay [3] was “binds” each time.

B2: GST-tagged Af1521 wild-type (protein, not shown: a dimerising Fc or GST)
chain: MEVLFEAKVGDITLKLAQGDITQYPAKAIVNAANKRLEHGGGVAYAIAKACAGDAGLYTEISKKAMREQFGRDYIDHGEVVVTPAMNLEERGIKYVFHTVGPICSGMWSEELKEKLYKAFLGPLEKAEEMGVESIAFPAVSAGIYGCDLEKVVETFLEAVKNFKGSAVKEVALVIYDRKSAEVALKVFERSL
For B2, the binding entry in assay [4] is recorded as “binds”.
